{"source": "PubChem BioAssay AID602196 (INSERM, 2012)", "test": "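Knock-downs that protect lung cancer cells from cisplatin or sensitise them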", "cells": "human A549 lung cancer cells", "knock-down reagent": "siRNA pair against human genes", "timing": "48 h transfection before cisplatin; time from cisplatin to read-out not stated", "challenge": "cisplatin at a dose killing half of control-siRNA cells; exact dose and duration not given", "detection": "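Shift in cisplatin death relative to control siRNA, from -50 (all cells die) to +50 (no cells die); siRNAs harmful on their own scored 0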", "reading the numbers": "two-siRNA summed score (-2 to +2): higher = both siRNAs protect from cisplatin killing; -2 means both sensitise; mean protection from cisplatin (shift in death): higher = protection from cisplatin killing", "hit rule": "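siRNAs harmful alone (LDH or WST-1) get 0; others get +1 for less and -1 for more cisplatin killing; genes are active when the two siRNAs give the same sign, summing to ±2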", "meaning of the calls": "active = both siRNAs shift cisplatin killing the same way; inactive = no consistent shift, or siRNA harmful alone", "note": "Shown is an unselected part of about 23,000 deposited reagents. Of all reagents, 455 (2%) got an active call. 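Active includes both protection and sensitisation; some change values fall well beyond the stated -50 to +50 range.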 Further read-outs or replicates are left out here. The record does not give: the amount of reagent."}
The opening 3 entries as a preview:
{"target":"MEDAG","PubChem SID":"SID131514941","two-siRNA summed score (-2 to +2)":0,"mean protection from cisplatin (shift in death) (%)":8.4,"Call":"inactive"}
{"target":"PPP1R17","PubChem SID":"SID131507472","two-siRNA summed score (-2 to +2)":0,"mean protection from cisplatin (shift in death) (%)":-0.1,"Call":"inactive"}
{"target":"ANKRD35","PubChem SID":"SID131504714","two-siRNA summed score (-2 to +2)":0,"mean protection from cisplatin (shift in death) (%)":-4.7,"Call":"inactive"}

Results, from the start:
{"target":"MEDAG","PubChem SID":"SID131514941","two-siRNA summed score (-2 to +2)":0,"mean protection from cisplatin (shift in death) (%)":8.4,"Call":"inactive"}
{"target":"PPP1R17","PubChem SID":"SID131507472","two-siRNA summed score (-2 to +2)":0,"mean protection from cisplatin (shift in death) (%)":-0.1,"Call":"inactive"}
{"target":"ANKRD35","PubChem SID":"SID131504714","two-siRNA summed score (-2 to +2)":0,"mean protection from cisplatin (shift in death) (%)":-4.7,"Call":"inactive"}
{"target":"DBP","PubChem SID":"SID131521135","two-siRNA summed score (-2 to +2)":1,"mean protection from cisplatin (shift in death) (%)":12.3,"Call":"inactive"}
{"target":"ESX1","PubChem SID":"SID131501069","two-siRNA summed score (-2 to +2)":-1,"mean protection from cisplatin (shift in death) (%)":-12.6,"Call":"inactive"}
{"target":"MASP2","PubChem SID":"SID131503256","two-siRNA summed score (-2 to +2)":0,"mean protection from cisplatin (shift in death) (%)":-11.6,"Call":"inactive"}
{"target":"COMMD8","PubChem SID":"SID131511224","two-siRNA summed score (-2 to +2)":0,"mean protection from cisplatin (shift in death) (%)":4.1,"Call":"inactive"}
{"target":"MOCOS","PubChem SID":"SID131521567","two-siRNA summed score (-2 to +2)":1,"mean protection from cisplatin (shift in death) (%)":14,"Call":"inactive"}
{"target":"LOC147942","PubChem SID":"SID131510923","two-siRNA summed score (-2 to +2)":0,"mean protection from cisplatin (shift in death) (%)":3.8,"Call":"inactive"}
{"target":"WBSCR23","PubChem SID":"SID131503152","two-siRNA summed score (-2 to +2)":0,"mean protection from cisplatin (shift in death) (%)":-12.8,"Call":"inactive"}
{"target":"LOC440175","PubChem SID":"SID131510107","two-siRNA summed score (-2 to +2)":0,"mean protection from cisplatin (shift in death) (%)":2.9,"Call":"inactive"}
{"target":"LEKR1","PubChem SID":"SID131505451","two-siRNA summed score (-2 to +2)":0,"mean protection from cisplatin (shift in death) (%)":-3.1,"Call":"inactive"}
{"target":"ZNF784","PubChem SID":"SID131506935","two-siRNA summed score (-2 to +2)":0,"mean protection from cisplatin (shift in death) (%)":-0.8,"Call":"inactive"}
{"target":"BTG4","PubChem SID":"SID131507848","two-siRNA summed score (-2 to +2)":0,"mean protection from cisplatin (shift in death) (%)":0.3,"Call":"inactive"}
{"target":"SCARA3","PubChem SID":"SID131503130","two-siRNA summed score (-2 to +2)":0,"mean protection from cisplatin (shift in death) (%)":-13.2,"Call":"inactive"}
{"target":"LOC440158","PubChem SID":"SID131515373","two-siRNA summed score (-2 to +2)":0,"mean protection from cisplatin (shift in death) (%)":9.1,"Call":"inactive"}
{"target":"EDNRB","PubChem SID":"SID131511611","two-siRNA summed score (-2 to +2)":0,"mean protection from cisplatin (shift in death) (%)":4.5,"Call":"inactive"}
{"target":"CES1","PubChem SID":"SID131501454","two-siRNA summed score (-2 to +2)":-1,"mean protection from cisplatin (shift in death) (%)":-9.6,"Call":"inactive"}
{"target":"TNFAIP8","PubChem SID":"SID131511805","two-siRNA summed score (-2 to +2)":0,"mean protection from cisplatin (shift in death) (%)":4.8,"Call":"inactive"}
{"target":"CTCFL","PubChem SID":"SID131508892","two-siRNA summed score (-2 to +2)":0,"mean protection from cisplatin (shift in death) (%)":1.6,"Call":"inactive"}
{"target":"CHPF","PubChem SID":"SID131511591","two-siRNA summed score (-2 to +2)":0,"mean protection from cisplatin (shift in death) (%)":4.5,"Call":"inactive"}
{"target":"BCL2L10","PubChem SID":"SID131504703","two-siRNA summed score (-2 to +2)":0,"mean protection from cisplatin (shift in death) (%)":-4.7,"Call":"inactive"}
{"target":"BEND3","PubChem SID":"SID131519118","two-siRNA summed score (-2 to +2)":1,"mean protection from cisplatin (shift in death) (%)":2.6,"Call":"inactive"}
{"target":"LOC339799","PubChem SID":"SID131517084","two-siRNA summed score (-2 to +2)":0,"mean protection from cisplatin (shift in death) (%)":12.3,"Call":"inactive"}
{"target":"MAGOHB","PubChem SID":"SID131507036","two-siRNA summed score (-2 to +2)":0,"mean protection from cisplatin (shift in death) (%)":-0.6,"Call":"inactive"}
{"target":"HRH3","PubChem SID":"SID131506646","two-siRNA summed score (-2 to +2)":0,"mean protection from cisplatin (shift in death) (%)":-1.2,"Call":"inactive"}
{"target":"UPB1","PubChem SID":"SID131505546","two-siRNA summed score (-2 to +2)":0,"mean protection from cisplatin (shift in death) (%)":-3,"Call":"inactive"}
{"target":"PALS2","PubChem SID":"SID131500596","two-siRNA summed score (-2 to +2)":-1,"mean protection from cisplatin (shift in death) (%)":-20.1,"Call":"inactive"}
{"target":"LHX6","PubChem SID":"SID131514482","two-siRNA summed score (-2 to +2)":0,"mean protection from cisplatin (shift in death) (%)":7.8,"Call":"inactive"}
{"target":"LOC389067","PubChem SID":"SID131522005","two-siRNA summed score (-2 to +2)":1,"mean protection from cisplatin (shift in death) (%)":15.8,"Call":"inactive"}
{"target":"C8orf76","PubChem SID":"SID131517007","two-siRNA summed score (-2 to +2)":0,"mean protection from cisplatin (shift in death) (%)":12.2,"Call":"inactive"}
